Structures can show the parent of a compound that is named as a salt. Some of the results follow. The calls rarely recur for the same compound in another form.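 Kinases were expressed as nanoluciferase fusions in K562 cells and luminescence was read every 4 h between 2 and 18 h as percent of control, DMSO set to 100% and a positive control to 0%. A time point counts as decreased when the signal drops significantly (2 sigma). The hit call is the authors' own, does not follow from the count of time points alone, and its rule is not shown.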
Tests used:
Test in all cases: number of time points (of 5) at which kinase-Nluc abundance scored as decreased, DMSO-normalised (count); higher = more persistent destabilization
Conditions in all cases: K562; 2-18 h
LMTK2 = LMTK2 (UniProt Q8IWU2)
LYN = LYN (UniProt P07948)
MAP2K1 = MAP2K1 (UniProt Q02750)
MAP2K2 = MAP2K2 (UniProt P36507)
MAP4K2 = MAP4K2 (UniProt Q12851)
MAPK1 = MAPK1 (UniProt P28482)
MAPK4 = MAPK4 (UniProt P31152)
MAPKAPK2 = MAPKAPK2 (UniProt P49137)
MKNK1 = MKNK1 (UniProt Q9BUB5)
NTRK2 = NTRK2 (UniProt Q16620)
NTRK3 = NTRK3 (UniProt Q16288)
PAK4 = PAK4 (UniProt O96013)
PBK = PBK (UniProt Q96KB5)
PDGFRB = PDGFRB (UniProt P09619)
PDK1 = PDK1 (UniProt Q15118)
PDPK1 = PDPK1 (UniProt O15530)
PIK4CA = PIK4CA (UniProt P42356)
PIK4CB = PIK4CB (UniProt Q9UBF8)
PLK1 = PLK1 (UniProt P53350)
PRKAA1 = PRKAA1 (UniProt Q13131)

Sequences of proteins named here, by UniProt entry; tags and fusion partners are left off. A change or cut given only in a name is not applied to a line headed by its entry.
UniProt P07948: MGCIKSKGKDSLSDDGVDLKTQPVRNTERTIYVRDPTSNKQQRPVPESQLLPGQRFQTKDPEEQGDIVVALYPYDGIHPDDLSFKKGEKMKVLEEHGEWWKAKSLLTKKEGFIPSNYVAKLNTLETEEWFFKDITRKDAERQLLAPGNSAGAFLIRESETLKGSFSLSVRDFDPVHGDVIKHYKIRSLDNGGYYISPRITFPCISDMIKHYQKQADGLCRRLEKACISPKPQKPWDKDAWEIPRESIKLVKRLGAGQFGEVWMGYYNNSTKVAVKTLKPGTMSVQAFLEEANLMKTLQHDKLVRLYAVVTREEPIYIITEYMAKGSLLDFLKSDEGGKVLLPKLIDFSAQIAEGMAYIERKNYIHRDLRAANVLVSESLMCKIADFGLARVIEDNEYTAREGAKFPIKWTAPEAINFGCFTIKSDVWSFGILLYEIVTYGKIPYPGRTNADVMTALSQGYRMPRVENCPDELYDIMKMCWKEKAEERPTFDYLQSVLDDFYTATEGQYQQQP
UniProt P28482, whole entry: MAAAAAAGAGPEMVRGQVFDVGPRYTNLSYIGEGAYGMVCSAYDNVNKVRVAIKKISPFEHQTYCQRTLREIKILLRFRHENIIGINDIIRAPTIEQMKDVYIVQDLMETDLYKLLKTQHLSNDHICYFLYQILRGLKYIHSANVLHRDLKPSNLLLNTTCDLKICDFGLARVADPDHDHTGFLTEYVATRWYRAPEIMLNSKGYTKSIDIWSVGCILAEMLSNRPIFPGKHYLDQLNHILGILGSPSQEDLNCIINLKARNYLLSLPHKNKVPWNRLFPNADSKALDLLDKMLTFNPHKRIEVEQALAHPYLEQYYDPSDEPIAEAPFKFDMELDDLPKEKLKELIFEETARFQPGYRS
UniProt P31152, whole entry: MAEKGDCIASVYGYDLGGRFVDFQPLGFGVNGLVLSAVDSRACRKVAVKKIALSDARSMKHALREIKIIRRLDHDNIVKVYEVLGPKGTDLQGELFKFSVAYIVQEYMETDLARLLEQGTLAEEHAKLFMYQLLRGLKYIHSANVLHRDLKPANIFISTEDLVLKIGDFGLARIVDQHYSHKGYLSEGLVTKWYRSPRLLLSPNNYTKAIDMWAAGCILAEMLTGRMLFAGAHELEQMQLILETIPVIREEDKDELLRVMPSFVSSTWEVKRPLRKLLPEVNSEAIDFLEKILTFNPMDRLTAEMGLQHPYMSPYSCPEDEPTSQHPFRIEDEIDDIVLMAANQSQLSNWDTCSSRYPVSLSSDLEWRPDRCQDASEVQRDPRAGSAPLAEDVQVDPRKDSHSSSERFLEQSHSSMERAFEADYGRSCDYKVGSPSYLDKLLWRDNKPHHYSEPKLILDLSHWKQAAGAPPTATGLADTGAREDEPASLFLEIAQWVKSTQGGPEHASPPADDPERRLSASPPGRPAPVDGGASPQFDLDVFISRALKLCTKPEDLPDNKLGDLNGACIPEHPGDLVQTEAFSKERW
UniProt P49137, whole entry, looked up: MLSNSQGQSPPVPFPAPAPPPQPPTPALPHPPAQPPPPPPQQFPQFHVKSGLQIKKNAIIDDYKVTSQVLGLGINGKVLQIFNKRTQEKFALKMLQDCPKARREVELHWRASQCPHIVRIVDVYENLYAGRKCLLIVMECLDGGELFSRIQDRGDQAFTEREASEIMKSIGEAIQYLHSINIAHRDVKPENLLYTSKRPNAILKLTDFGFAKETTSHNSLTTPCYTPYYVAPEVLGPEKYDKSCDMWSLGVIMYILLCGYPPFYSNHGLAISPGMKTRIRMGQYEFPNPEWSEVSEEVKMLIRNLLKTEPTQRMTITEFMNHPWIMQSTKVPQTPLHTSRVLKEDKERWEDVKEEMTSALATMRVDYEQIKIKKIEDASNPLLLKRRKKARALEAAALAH
UniProt Q16288, whole entry, looked up: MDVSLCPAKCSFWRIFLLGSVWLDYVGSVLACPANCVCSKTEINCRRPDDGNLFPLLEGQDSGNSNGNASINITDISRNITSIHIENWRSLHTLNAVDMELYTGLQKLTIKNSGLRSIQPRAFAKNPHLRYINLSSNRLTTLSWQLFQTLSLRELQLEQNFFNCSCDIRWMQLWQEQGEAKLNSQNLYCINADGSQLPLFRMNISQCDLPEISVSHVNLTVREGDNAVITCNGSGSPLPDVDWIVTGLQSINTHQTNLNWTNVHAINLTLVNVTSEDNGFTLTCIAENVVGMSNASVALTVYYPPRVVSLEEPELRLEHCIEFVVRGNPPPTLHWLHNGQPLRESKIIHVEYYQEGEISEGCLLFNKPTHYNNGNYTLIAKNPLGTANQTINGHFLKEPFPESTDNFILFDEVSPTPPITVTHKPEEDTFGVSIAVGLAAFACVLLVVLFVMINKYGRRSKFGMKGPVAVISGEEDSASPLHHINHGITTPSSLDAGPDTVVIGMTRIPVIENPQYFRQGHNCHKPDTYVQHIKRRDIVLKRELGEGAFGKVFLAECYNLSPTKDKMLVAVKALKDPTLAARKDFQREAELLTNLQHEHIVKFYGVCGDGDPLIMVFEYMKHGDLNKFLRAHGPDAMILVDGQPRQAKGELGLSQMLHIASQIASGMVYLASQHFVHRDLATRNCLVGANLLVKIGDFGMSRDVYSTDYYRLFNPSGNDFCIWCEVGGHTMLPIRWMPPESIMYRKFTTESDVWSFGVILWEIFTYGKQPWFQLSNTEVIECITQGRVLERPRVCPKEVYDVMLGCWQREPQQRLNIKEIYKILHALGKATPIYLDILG
UniProt Q96KB5: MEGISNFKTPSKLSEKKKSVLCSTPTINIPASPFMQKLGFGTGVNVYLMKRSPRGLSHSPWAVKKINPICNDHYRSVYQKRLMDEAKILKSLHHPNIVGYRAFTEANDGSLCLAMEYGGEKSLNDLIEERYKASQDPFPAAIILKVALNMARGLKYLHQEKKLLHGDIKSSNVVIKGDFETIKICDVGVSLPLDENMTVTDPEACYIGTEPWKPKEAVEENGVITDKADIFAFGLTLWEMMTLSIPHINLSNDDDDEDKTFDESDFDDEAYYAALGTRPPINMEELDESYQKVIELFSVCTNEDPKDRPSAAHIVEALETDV
UniProt P09619, whole entry: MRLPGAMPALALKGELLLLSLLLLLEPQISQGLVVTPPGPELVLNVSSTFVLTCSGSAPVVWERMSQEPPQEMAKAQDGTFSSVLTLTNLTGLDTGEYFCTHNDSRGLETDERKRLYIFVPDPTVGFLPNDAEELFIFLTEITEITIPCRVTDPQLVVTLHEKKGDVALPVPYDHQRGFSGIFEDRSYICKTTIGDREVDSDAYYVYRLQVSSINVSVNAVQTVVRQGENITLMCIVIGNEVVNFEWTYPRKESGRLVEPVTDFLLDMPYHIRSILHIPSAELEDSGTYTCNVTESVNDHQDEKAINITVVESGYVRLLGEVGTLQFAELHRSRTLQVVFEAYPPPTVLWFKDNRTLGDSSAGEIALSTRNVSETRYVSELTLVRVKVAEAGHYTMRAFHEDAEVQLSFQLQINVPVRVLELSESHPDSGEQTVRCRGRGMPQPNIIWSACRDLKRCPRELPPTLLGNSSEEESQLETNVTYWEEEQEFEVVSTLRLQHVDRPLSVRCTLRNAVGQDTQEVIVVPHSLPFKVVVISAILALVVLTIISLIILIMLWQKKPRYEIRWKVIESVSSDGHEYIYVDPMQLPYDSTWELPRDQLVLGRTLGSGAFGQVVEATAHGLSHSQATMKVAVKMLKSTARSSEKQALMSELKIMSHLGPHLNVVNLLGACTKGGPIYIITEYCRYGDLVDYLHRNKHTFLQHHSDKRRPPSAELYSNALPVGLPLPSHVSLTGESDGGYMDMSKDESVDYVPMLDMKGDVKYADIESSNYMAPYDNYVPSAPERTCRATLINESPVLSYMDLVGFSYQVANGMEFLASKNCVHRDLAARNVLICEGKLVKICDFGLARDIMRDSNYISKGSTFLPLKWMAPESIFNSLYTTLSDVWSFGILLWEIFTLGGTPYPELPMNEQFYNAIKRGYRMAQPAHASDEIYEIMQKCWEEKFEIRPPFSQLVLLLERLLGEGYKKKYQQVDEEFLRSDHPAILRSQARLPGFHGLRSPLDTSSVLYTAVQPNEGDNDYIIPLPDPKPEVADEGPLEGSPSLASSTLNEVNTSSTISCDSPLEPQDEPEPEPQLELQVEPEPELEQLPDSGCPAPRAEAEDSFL
UniProt Q15118, whole entry, looked up: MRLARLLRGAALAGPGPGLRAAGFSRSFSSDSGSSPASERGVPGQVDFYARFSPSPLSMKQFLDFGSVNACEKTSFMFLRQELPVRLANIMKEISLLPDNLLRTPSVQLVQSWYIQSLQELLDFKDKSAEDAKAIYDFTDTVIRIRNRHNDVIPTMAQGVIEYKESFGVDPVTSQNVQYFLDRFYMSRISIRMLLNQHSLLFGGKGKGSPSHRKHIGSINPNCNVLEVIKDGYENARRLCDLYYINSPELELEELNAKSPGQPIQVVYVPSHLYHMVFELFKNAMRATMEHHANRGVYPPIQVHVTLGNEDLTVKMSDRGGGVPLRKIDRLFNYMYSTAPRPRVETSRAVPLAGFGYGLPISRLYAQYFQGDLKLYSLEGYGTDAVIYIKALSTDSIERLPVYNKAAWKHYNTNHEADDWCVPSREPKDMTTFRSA
UniProt O15530: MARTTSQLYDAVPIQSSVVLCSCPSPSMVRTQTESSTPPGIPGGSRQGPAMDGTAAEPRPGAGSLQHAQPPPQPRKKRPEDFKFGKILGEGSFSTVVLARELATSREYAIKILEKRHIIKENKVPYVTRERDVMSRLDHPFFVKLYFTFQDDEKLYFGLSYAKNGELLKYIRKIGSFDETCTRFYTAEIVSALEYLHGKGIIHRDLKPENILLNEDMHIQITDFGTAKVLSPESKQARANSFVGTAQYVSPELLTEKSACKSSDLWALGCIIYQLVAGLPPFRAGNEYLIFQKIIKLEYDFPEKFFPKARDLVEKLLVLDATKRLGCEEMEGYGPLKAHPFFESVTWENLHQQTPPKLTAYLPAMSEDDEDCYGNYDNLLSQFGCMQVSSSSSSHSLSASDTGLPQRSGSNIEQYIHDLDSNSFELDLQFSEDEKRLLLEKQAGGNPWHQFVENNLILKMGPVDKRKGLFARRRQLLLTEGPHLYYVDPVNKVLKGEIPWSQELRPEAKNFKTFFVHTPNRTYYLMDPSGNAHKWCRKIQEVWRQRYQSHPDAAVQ
UniProt Q9UBF8: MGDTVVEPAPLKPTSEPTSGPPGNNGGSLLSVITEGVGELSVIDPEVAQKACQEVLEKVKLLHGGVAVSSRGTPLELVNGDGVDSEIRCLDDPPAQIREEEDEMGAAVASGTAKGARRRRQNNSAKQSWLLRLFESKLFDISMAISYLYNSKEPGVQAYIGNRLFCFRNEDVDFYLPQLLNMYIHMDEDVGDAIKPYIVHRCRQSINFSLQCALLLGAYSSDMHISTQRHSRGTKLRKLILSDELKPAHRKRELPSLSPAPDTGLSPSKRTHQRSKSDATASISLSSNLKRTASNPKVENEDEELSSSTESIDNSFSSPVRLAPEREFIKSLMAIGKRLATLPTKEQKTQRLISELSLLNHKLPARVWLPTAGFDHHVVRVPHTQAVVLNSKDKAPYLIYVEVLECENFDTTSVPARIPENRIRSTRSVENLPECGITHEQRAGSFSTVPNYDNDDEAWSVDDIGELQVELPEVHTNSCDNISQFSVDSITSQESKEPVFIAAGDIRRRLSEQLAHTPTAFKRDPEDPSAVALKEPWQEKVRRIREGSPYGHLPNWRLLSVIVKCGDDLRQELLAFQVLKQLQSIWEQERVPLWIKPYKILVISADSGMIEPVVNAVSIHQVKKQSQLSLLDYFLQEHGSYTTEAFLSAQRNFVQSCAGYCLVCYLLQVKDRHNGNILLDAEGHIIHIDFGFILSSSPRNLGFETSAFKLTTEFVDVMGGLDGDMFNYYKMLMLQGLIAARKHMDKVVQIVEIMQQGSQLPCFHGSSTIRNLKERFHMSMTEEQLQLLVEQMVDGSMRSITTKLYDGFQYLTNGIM
UniProt Q13131: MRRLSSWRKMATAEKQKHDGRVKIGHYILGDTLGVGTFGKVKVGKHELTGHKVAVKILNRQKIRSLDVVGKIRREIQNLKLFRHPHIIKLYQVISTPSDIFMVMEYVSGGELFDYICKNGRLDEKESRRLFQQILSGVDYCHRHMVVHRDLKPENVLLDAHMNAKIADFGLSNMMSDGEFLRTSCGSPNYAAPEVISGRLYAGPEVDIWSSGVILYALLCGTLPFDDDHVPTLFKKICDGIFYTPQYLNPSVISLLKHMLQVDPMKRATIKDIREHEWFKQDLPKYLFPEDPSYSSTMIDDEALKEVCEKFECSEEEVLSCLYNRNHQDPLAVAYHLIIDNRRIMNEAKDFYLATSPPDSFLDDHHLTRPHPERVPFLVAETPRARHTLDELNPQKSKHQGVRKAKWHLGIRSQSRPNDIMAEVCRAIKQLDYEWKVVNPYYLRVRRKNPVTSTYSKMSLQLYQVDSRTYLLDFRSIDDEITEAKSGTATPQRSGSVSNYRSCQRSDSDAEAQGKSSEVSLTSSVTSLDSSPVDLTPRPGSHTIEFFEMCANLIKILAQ

Measured: number of time points

N#Cc1c2nc3ccccc3nc2n2ccc(NC(=O)c3cccs3)cc12 (10 µM)
0: all assays above

CNC(=O)c1ccccc1Nc1nc(Nc2ccc3c(c2OC)CCC[C@H](N2CCN(CCO)CC2)C3)ncc1Cl (10 µM)
2: PRKAA1
1: LMTK2 | LYN | PIK4CB | PLK1
4: MKNK1 | PDPK1 | PIK4CA
0: all other assays above

CC(C)CNc1ccnc(NCc2csc(-c3ccccc3)n2)n1 [KHS101 hydrochloride] (2.5 µM)
3: LMTK2
2: PIK4CB
0: all other assays above

O=Nc1c2[nH]c3ccccc3nc-2c2ccccc12 [IQ-1S (free acid)] (2.5 µM)
0: all assays above

COc1cc(-c2cn[nH]c2)ccc1C(=O)Nc1ccc2c(c1)CCNCC2 (10 µM)
0: all assays above

CC(C)S(=O)(=O)c1ccc2nccc(Nc3ccc4scnc4c3)c2c1 (10 µM)
4: PDPK1
0: all other assays above

Cn1cc2cc(C(F)(F)c3nnc4ccc(-c5cnn(C6CC6)c5)nn34)c(F)cc2n1 [Bozitinib] (10 µM)
0: all assays above

COc1c(Nc2cc(C)[nH]n2)nc(Sc2ccc(S(=O)(=O)Cc3cccc([N+](=O)[O-])c3F)cc2F)nc1N1CCCCC1 [Centrinone-B] (2.5 µM)
0: all assays above

CCCCCCCC/C=C\CCCCCCCCCCCC(=O)O [Erucic acid] (10 µM)
0: all assays above

Cc1ccc2c(Nc3cccc(Cl)c3F)nccc2c1NC(=O)c1csc2c(N)ncnc12 [Belvarafenib] (10 µM)
0: all assays above

CC(=O)c1c(C)c2cnc(Nc3ccc(N4CCN(C(=O)CNc5cccc6c5C(=O)N(C5CCC(=O)NC5=O)C6=O)CC4)cn3)nc2n(C2CCCC2)c1=O (stereo not given) (10 µM)
0: all assays above

COc1ccc(/C=C/C(=O)C2(C(=O)/C=C/c3ccc(OC)c(OC)c3)CCCCC2)cc1OC (2.5 µM)
0: all assays above

Cn1cc(C2=C(c3cccc(N)c3)C(=O)NC2=O)c2ccccc21 (10 µM)
0: all assays above

CCCCCCCCCCCCCCCCOP(=O)([O-])OCC[N+](C)(C)C [Miltefosine] (10 µM)
0: all assays above

Cc1ccc(NC(=O)c2ccc(CN(CCN(C)C)C(=O)c3cccnc3)cc2)cc1Nc1nccc(-c2cccnc2)n1 [PDGFRα kinase inhibitor 1] (10 µM)
0: all assays above

O=C(Nc1nc2ccccc2[nH]1)c1cccc([N+](=O)[O-])c1 [IRAK-4 protein kinase inhibitor 2] (10 µM)
0: all assays above

Nc1nccc(Oc2ccc(NC(=O)c3c[nH]cc(-c4ccc(F)cc4)c3=O)cc2F)c1Cl (10 µM)
1: PRKAA1
2: NTRK2
4: MKNK1 | PDGFRB | PIK4CA
0: all other assays above

Cc1ccc(-c2csc3ncnc(SCCC(=O)O)c23)cc1 (10 µM)
0: all assays above

Cc1cc(Nc2ncnc3ccc(-c4ccc(CNCCS(C)(=O)=O)o4)cc23)ccc1Oc1ccn2ncnc2c1 [ARRY-380 (analog )] (2.5 µM)
0: all assays above

CC(C)=CCc1c(-c2ccc(O)cc2O)oc2c3c(cc(O)c2c1=O)OC(C)(C)C=C3 [Morusin] (2.5 µM)
0: all assays above

O=C(N[C@@H](C1CC1)C(F)(F)F)c1cc(-c2cnn3cc(-c4ccc(F)cc4)cnc23)cs1 (10 µM)
0: all assays above

Cc1nc(-c2cnn(C)c2)nc2c1[nH]c1ncc(-c3ccc(N4CCN(C)CC4)cc3)cc12 [GNE 220 (hydrochloride)] (10 µM)
0: all assays above

C[C@@H]1CCNC(=O)c2cc3ccc(C(=O)Nc4nc5ccccc5n4CCCN(C)C)cc3n21 (10 µM)
0: all assays above

Nc1nc(N)c2nc(-c3cccc(O)c3)cnc2n1 (10 µM)
0: all assays above

CC1(C)Cc2c(sc(NC(=S)NC(=O)c3ccccc3)c2C(=O)O)CO1 (10 µM)
0: all assays above

COc1cc2ncnc(Nc3ccc(F)c(Cl)c3)c2cc1NC(=O)/C=C/CN1CCCCC1 [Dacomitinib] (10 µM)
0: all assays above

CCN(CC)c1ccc2cc(-c3nc4cc(C)ccc4o3)c(=O)oc2c1 (10 µM)
0: all assays above

C[C@@H]1CN(c2cc(-c3n[nH]c4ccc(OC5(C)CC5)cc34)ncn2)C[C@H](C)O1 (10 µM)
0: all assays above

CCOC(=O)N1C/C(=C/c2ccccc2F)C(=O)/C(=C\c2ccccc2F)C1 (2.5 µM)
0: all assays above

O=C(Nc1nc(=O)n(Cc2ccc(Cl)cc2)s1)c1ccc(Cl)cc1 (10 µM)
0: all assays above

C#Cc1cccc(Nc2ncnc3cc(OC)c(OCCCCCCC(=O)NO)cc23)c1 (2.5 µM)
0: all assays above

C[C@H](Nc1ncnc2nc[nH]c12)c1cc2cccc(Cl)c2c(=O)n1-c1ccccc1 [Duvelisib] (10 µM)
0: all assays above

O=c1cc(N2CCOCC2)nc2c3ccccc3ccn12 [Compound 401] (10 µM)
0: all assays above

Cn1ncc2cc(-c3cnc(N)c(Cl)c3N3CCC4(CCNC4=O)CC3)ccc21 (10 µM)
0: all assays above

COc1ccccc1C(=O)/C=C/c1ccccc1C(=O)O (10 µM)
0: all assays above

COc1ncccc1-c1cnn2ccc(N3CCN(C(=O)OC(C)C)CC3)nc12 (10 µM)
0: all assays above

CN(C)S(=O)(=O)c1ccc2c(c1)/C(=C/c1cc3c([nH]1)CCCC3)C(=O)N2 (2.5 µM)
1: PBK
2: PDPK1
0: all other assays above

N#CC(c1ccnc(OCc2ccc(CN3CCOCC3)cc2)n1)c1nc2ccccc2s1 (stereo not given) [Bentamapimod] (2.5 µM)
0: all assays above

NC1=NCCN1CC(=O)O [Cyclocreatine] (10 µM)
0: all assays above

COCCNc1cc(NC(=O)N2CCCc3cc(CN4CCN(C)CC4=O)c(C=O)nc32)ncc1C#N [Roblitinib] (10 µM)
0: all assays above

O=[N+]([O-])c1ccc2c(c1)S(=O)(=O)C=C2 [Stattic] (2.5 µM)
0: all assays above

O=C(NCc1cccc(O)c1)Nc1nc(-c2ccncc2)cs1 (10 µM)
0: all assays above

CC(C)=CC(=O)O[C@H]1Cc2cc3ccc(=O)oc3cc2OC1(C)C [Decursin] (10 µM)
0: all assays above

CN(C)CCC=C1c2ccccc2CCc2ccccc21 [Amitriptyline (hydrochloride)] (2.5 µM)
0: all assays above

No new results follow: three of the compounds above.
O=[N+]([O-])c1ccc2c(c1)S(=O)(=O)C=C2 [Stattic] (2.5 µM)
0: all assays above

O=C(NCc1cccc(O)c1)Nc1nc(-c2ccncc2)cs1 (10 µM)
0: all assays above

CC(C)=CC(=O)O[C@H]1Cc2cc3ccc(=O)oc3cc2OC1(C)C [Decursin] (10 µM)
0: all assays above

More structures:

CC(C)c1cccc(C(C)C)c1N1C(=O)c2ccc(N)cc2C1=O (2.5 µM)
0: all assays above

CNc1nc(Nc2ccc(C(=O)N3CCOCC3)cc2OC)ncc1Cl (2.5 µM)
0: all assays above

CC(C)(O)[C@H]1CC[C@H](Nc2ccc3ncc(-c4cccc(C(F)(F)F)c4)n3n2)CC1 (10 µM)
0: all assays above

Nc1cccc(-c2cc3c(Oc4cccc(O)c4)ncnc3[nH]2)c1 (10 µM)
2: MKNK1 | PIK4CB
3: PDPK1
1: PDGFRB | PRKAA1
0: all other assays above

CN1CC[C@@H](c2c(O)cc(O)c3c(=O)cc(-c4ccc(C(F)(F)F)cc4Cl)oc23)[C@@H]1CO [Voruciclib (hydrochloride)] (10 µM)
0: all assays above

Source: the supplement of paper PMC12823440, “Inhibitors supercharge kinase turnover through native proteolytic circuits” (Nature, 2025)
